PubChem BioAssay AID1259254 | NCATS, 2017

Aim: 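Gene knock-downs that lead to re-replication, shown by excess G2 DNA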 (primary screen)
Cells: human HCT116 colorectal cancer cells
Reagents: single siRNA against human genes
Time to read-out: 3 days
Measured: 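Imaged Hoechst DNA stain sorts each cell into a cycle phase by DNA amount; per plate, G2 fraction set to 0% for non-targeting and 100% for GMNN siRNA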
Scale: G2 robust z-score: higher = more G2 cells, more excess DNA replication
Rule for the call: 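An siRNA counts as active if its G2 robust z-score lies at least 5 MADs above the screen median; here such calls match roughly 38% of GMNN control or more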
This is an unselected part of about 59,000 reagents. About 1,550 of them (2.6%) were called active. 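G2 share is only a proxy for re-replication; each gene was hit by three separate siRNAs, and active genes were retested.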 The numbers tell different reagents against one gene apart. Further read-outs or replicates are left out here. Reagent sequences are not shown. The record does not give: the amount of reagent.

The first 3 records, ahead of the listing:
| target gene | reagent | G2 robust z-score | Call |
| --- | --- | --- | --- |
| DDIT3 (GeneID 1649) | 1 | -0.264 | inactive |
| DDIT3 (GeneID 1649) | 2 | 0.965 | inactive |
| DDIT3 (GeneID 1649) | 3 | -0.463 | inactive |

Results, from the start:
| target gene | reagent | G2 robust z-score | Call |
| --- | --- | --- | --- |
| DDIT3 (GeneID 1649) | 1 | -0.264 | inactive |
| DDIT3 (GeneID 1649) | 2 | 0.965 | inactive |
| DDIT3 (GeneID 1649) | 3 | -0.463 | inactive |
| P2RX7 (GeneID 5027) | 1 | -0.503 | inactive |
| P2RX7 (GeneID 5027) | 2 | 1.12 | inactive |
| P2RX7 (GeneID 5027) | 3 | 0.22 | inactive |
| CAMK2B (GeneID 816) | 1 | -0.317 | inactive |
| CAMK2B (GeneID 816) | 2 | -1.26 | inactive |
| CAMK2B (GeneID 816) | 3 | -1.09 | inactive |
| KRT10 (GeneID 3858) | 1 | -0.688 | inactive |
| KRT10 (GeneID 3858) | 2 | -0.0206 | inactive |
| KRT10 (GeneID 3858) | 3 | 0.714 | inactive |
| F12 (GeneID 2161) | 1 | -0.635 | inactive |
| F12 (GeneID 2161) | 2 | 2 | inactive |
| F12 (GeneID 2161) | 3 | 2.2 | inactive |
| GPSM2 (GeneID 29899) | 1 | -1.03 | inactive |
| GPSM2 (GeneID 29899) | 2 | -1.35 | inactive |
| GPSM2 (GeneID 29899) | 3 | -0.0479 | inactive |
| ABCB8 (GeneID 11194) | 1 | -0.474 | inactive |
| ABCB8 (GeneID 11194) | 2 | 1.43 | inactive |
| ABCB8 (GeneID 11194) | 3 | -1.12 | inactive |
| SUSD2 (GeneID 56241) | 1 | -0.882 | inactive |
| SUSD2 (GeneID 56241) | 2 | 6.57 | active |
| SUSD2 (GeneID 56241) | 3 | -0.363 | inactive |
| FRMPD2 (GeneID 143162) | 1 | 0.679 | inactive |
| FRMPD2 (GeneID 143162) | 2 | 2.77 | inactive |
| FRMPD2 (GeneID 143162) | 3 | 2.68 | inactive |
| GRIFIN (GeneID 402635) | 1 | -0.55 | inactive |
| GRIFIN (GeneID 402635) | 2 | 0.312 | inactive |
| GRIFIN (GeneID 402635) | 3 | -0.758 | inactive |
| IZUMO1R (GeneID 390243) | 1 | 0.235 | inactive |
| IZUMO1R (GeneID 390243) | 2 | -0.948 | inactive |
| IZUMO1R (GeneID 390243) | 3 | -0.157 | inactive |
| PGGHG (GeneID 80162) | 1 | -0.439 | inactive |
| PGGHG (GeneID 80162) | 2 | 4.12 | inactive |
| PGGHG (GeneID 80162) | 3 | 9.7 | active |
| MGLL (GeneID 11343) | 1 | 2.2 | inactive |
| MGLL (GeneID 11343) | 2 | -0.675 | inactive |
| MGLL (GeneID 11343) | 3 | 0.456 | inactive |
| OXA1L (GeneID 5018) | 1 | 0.591 | inactive |
| OXA1L (GeneID 5018) | 2 | -0.898 | inactive |
| OXA1L (GeneID 5018) | 3 | 0.275 | inactive |
| ZNF771 (GeneID 51333) | 1 | 0.513 | inactive |
| ZNF771 (GeneID 51333) | 2 | -0.334 | inactive |
| ZNF771 (GeneID 51333) | 3 | 0.17 | inactive |
| COL6A4P1 (GeneID 344875) | 1 | -0.846 | inactive |
| COL6A4P1 (GeneID 344875) | 2 | -0.065 | inactive |
| COL6A4P1 (GeneID 344875) | 3 | -0.984 | inactive |
| COL6A4P1 (GeneID 344875) | 4 | 0.196 | inactive |
| COL6A4P1 (GeneID 344875) | 5 | -0.264 | inactive |
| COL6A4P1 (GeneID 344875) | 6 | 2.62 | inactive |
| NHP2 (GeneID 55651) | 1 | 10.4 | active |
| NHP2 (GeneID 55651) | 2 | 1.1 | inactive |
| NHP2 (GeneID 55651) | 3 | 0.582 | inactive |
| ALG1L6P (GeneID 339879) | 1 | 0.707 | inactive |
| ALG1L6P (GeneID 339879) | 2 | 1.61 | inactive |
| ALG1L6P (GeneID 339879) | 3 | -0.233 | inactive |
| RNASE2 (GeneID 6036) | 1 | 1.94 | inactive |
| RNASE2 (GeneID 6036) | 2 | 0.465 | inactive |
| RNASE2 (GeneID 6036) | 3 | 0.499 | inactive |
| CCIN (GeneID 881) | 1 | -0.448 | inactive |
| CCIN (GeneID 881) | 2 | 0.702 | inactive |
| CCIN (GeneID 881) | 3 | -0.204 | inactive |
| HGS (GeneID 9146) | 1 | -0.603 | inactive |
| HGS (GeneID 9146) | 2 | 0.102 | inactive |
| HGS (GeneID 9146) | 3 | -0.222 | inactive |
| PIGT (GeneID 51604) | 1 | 3.26 | inactive |
| PIGT (GeneID 51604) | 2 | 1.21 | inactive |
| PIGT (GeneID 51604) | 3 | -0.00368 | inactive |
| PCNX3 (GeneID 399909) | 1 | -0.859 | inactive |
| PCNX3 (GeneID 399909) | 2 | 0.612 | inactive |
| PCNX3 (GeneID 399909) | 3 | -0.507 | inactive |
| SPRR2G (GeneID 6706) | 1 | -0.713 | inactive |
| SPRR2G (GeneID 6706) | 2 | -0.165 | inactive |
| SPRR2G (GeneID 6706) | 3 | 1.63 | inactive |
| ASXL1 (GeneID 171023) | 1 | 1.46 | inactive |
| ASXL1 (GeneID 171023) | 2 | 1.49 | inactive |
| ASXL1 (GeneID 171023) | 3 | -0.323 | inactive |
| TNIP2 (GeneID 79155) | 1 | 0.381 | inactive |
| TNIP2 (GeneID 79155) | 2 | -0.873 | inactive |
| TNIP2 (GeneID 79155) | 3 | -0.515 | inactive |
| ZFP62 (GeneID 643836) | 1 | 0.989 | inactive |
| ZFP62 (GeneID 643836) | 2 | 0.178 | inactive |
| ZFP62 (GeneID 643836) | 3 | 0.329 | inactive |
| SLITRK5 (GeneID 26050) | 1 | -0.771 | inactive |
| SLITRK5 (GeneID 26050) | 2 | -1.59 | inactive |
| SLITRK5 (GeneID 26050) | 3 | -0.0377 | inactive |
